No constants are given. Whether binding was seen depends on the method and setting. Binding seen in cells or lysates may run through a third protein. Some results given as binding are weak or reduced against the parent protein; the word gives no strength. Where a sequence is shown, tags or fusion partners need not be part of it.
T1: HA-TAK1 (UniProt Q62073 1-579, limits assumed)
T1 construct: I recall the cited Yamaguchi 1995 clone as mouse TAK1 (Q62073); human TAK1 is O43318; also called HA-tagged TAK1 protein
T1 sequence (looked up): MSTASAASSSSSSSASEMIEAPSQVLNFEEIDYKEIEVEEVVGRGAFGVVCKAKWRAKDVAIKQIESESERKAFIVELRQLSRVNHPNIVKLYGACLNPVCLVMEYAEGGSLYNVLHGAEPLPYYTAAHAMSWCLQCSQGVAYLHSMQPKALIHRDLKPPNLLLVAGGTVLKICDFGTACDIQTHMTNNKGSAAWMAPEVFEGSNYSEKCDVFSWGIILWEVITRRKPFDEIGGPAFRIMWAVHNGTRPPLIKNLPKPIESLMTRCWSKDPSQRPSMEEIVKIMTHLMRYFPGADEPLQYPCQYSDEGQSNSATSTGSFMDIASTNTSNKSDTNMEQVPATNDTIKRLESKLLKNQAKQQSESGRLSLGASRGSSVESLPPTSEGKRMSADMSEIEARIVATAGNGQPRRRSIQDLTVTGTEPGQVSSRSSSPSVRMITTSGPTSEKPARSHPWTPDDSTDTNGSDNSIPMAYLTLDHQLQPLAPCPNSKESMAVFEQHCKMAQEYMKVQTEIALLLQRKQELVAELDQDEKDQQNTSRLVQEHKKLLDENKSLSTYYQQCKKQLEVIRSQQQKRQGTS


Tests used:
[1] = target: T1, HA-TAK1; test: coimmunoprecipitation from transfected 293 cells: IP anti-T7, immunoblot anti-HA
Experimental: 293 cells were transiently transfected with an expression vector for HA-TAK1 in combination with empty vector (−) or with expression vectors for T7-TAB2-Full length (Full), T7-TAB2C (C), or T7-TAB2N (N) as indicated. Cell extracts were immunoprecipitated (IP) with anti-T7 (7) or mouse IgG (C). Coprecipitated HA-TAK1 was detected by immunoblotting (IB) with anti-HA (upper panel, left). The amounts of immunoprecipitated T7-TAB2 proteins were determined with anti-T7 (lower panel). Whole cell extracts were immunoblotted with anti-HA to determine total amounts of HA-TAK1 (upper panel, right). Schematic representation of various TAB2 constructs is shown in the lower part. The coiled-coil regions are indicated by solid boxes.

[2] = target: T1, HA-TAK1; test: coimmunoprecipitation from 293 cells coexpressing T7-TAB2C, Flag-TRAF6 and HA-TAK1: IP anti-HA, immunoblot anti-T7
[3] = target: T1, HA-TAK1; test: coimmunoprecipitation from transfected 293 cells: IP anti-T7, immunoblot anti-HA (FIG. 1B legend)

binding [1]	binding [2]	binding [3]	Binder
binds	binds		T7-TAB2C (protein) MASMTGGQQMGMRNQPTLFISTNSGASAASRNMSGQVSMGPAFIHHHPPKSRAIGNNSATSPRVVVTQPNTKYTFKITVSPNKPPAVSPGVVSPTFELTNLLNHPDHYVETENIQHLTDPTLAHVDRISETRKLSMGSDDAAYTQALLVHQKARMERLQRELEIQKKKLDKLKSEVNEMENNLTRRRLKRSNSISQIPSLEEMQQLRSCNRQLQIDIDCLTKEIDLFQARGPHFNPSAIHNFYDNIGFVGPVPPKPKDQRSIIKTPKTQDTEDDEGAQWNCTACTFLNHPALIRCEQCEMPRHF
binds		binds	T7-TAB2-Full length (protein) MASMTGGQQMGMAQGSHQIDFQVLHDLRQKFPEVPEVVVSRCMLQNNNNLDACCAVLSQESTRYLYGEGDLNFSDDSGISGLRNHMTSLNLDLQSQNIYHHGREGSRMNGSRTLTHSISDGQLQGGQSNSELFQQEPQTAPAQVPQGFNVFGMSSSSGASNSAPHLGFHLGSKGTSSLSQQTPRFNPIMVTLAPNIQTGRNTPTSLHIHGVPPPVLNSPQGNSIYIRPYITTPGGTTRQTQQHSGWVSQFNPMNPQQVYQPSQPGPWTTCPASNPLSHTSSQQPNQQGHQTSHVYMPISSPTTSQPPTIHSSGSSQSSAHSQYNIQNISTGPRKNQIEIKLEPPQRNNSSKLRSSGPRTSSTSSSVNSQTLNRNQPTVYIAASPPNTDELMSRSQPKVYISANAATGDEQVMRNQPTLFISTNSGASAASRNMSGQVSMGPAFIHHHPPKSRAIGNNSATSPRVVVTQPNTKYTFKITVSPNKPPAVSPGVVSPTFELTNLLNHPDHYVETENIQHLTDPTLAHVDRISETRKLSMGSDDAAYTQALLVHQKARMERLQRELEIQKKKLDKLKSEVNEMENNLTRRRLKRSNSISQIPSLEEMQQLRSCNRQLQIDIDCLTKEIDLFQARGPHFNPSAIHNFYDNIGFVGPVPPKPKDQRSIIKTPKTQDTEDDEGAQWNCTACTFLNHPALIRCEQCEMPRHF

From US20030040050A1 (published 2003)
